Certain results were filed several times, with different values. The list is limited to them. There may be further records. Values given together do not match, cause unknown; they may come from other doses, times, organisms or constructs than stated.
Biological target: purified human FAS (Homo sapiens, UniProt P49327)
Assay: FAS enzymatic activity (malonyl-CoA dependent NADPH oxidation, OD340)
Settings: purified human FAS from ZR-75-1 cells
Procedure: Purification of FAS from ZR-75-1 Human Breast Cancer Cells.
Human FAS was purified from cultured ZR-75-1 human breast cancer cells obtained from the American Type Culture Collection. The procedure, adapted from Linn et al., 1981, and Kuhajda et al., 1994, utilizes hypotonic lysis, successive polyethyleneglycol (PEG) precipitations, and anion exchange chromatography. ZR-75-1 cells are cultured at 37° C. with 5% CO2 in RPMI culture medium with 10% fetal bovine serum, penicillin and streptomycin.
Ten T150 flasks of confluent cells are lysed with 1.5 ml lysis buffer (20 mM Tris-HCl, pH 7.5, 1 mM EDTA, 0.1 mM phenylmethanesulfonyl fluoride (PMSF), 0.1% Igepal CA-630) and dounce homogenized on ice for 20 strokes. […] FAS protein concentration is determined using the Coomassie Plus Protein Assay Reagent (Pierce) according to manufacturer's specifications using BSA as a standard. […]
FAS activity is measured by monitoring the malonyl-CoA dependent oxidation of NADPH spectrophotometrically at OD340 in 96-well plates (Dils et al and Arslanian et al, 1975). […]
The assay is performed on a Molecular Devices SpectraMax Plus Spectrophotometer. […] Using the kinetic protocol, the wells are blanked on duplicate wells containing 100 μl of 100 mM K2HPO4, pH 6.5 and the plate is read at OD340 at 10 sec intervals for 5 minutes to measure any malonyl-CoA independent oxidation of NADPH. […]

Amino acid sequences for entries named in this document (tags omitted).
UniProt P49327, whole entry: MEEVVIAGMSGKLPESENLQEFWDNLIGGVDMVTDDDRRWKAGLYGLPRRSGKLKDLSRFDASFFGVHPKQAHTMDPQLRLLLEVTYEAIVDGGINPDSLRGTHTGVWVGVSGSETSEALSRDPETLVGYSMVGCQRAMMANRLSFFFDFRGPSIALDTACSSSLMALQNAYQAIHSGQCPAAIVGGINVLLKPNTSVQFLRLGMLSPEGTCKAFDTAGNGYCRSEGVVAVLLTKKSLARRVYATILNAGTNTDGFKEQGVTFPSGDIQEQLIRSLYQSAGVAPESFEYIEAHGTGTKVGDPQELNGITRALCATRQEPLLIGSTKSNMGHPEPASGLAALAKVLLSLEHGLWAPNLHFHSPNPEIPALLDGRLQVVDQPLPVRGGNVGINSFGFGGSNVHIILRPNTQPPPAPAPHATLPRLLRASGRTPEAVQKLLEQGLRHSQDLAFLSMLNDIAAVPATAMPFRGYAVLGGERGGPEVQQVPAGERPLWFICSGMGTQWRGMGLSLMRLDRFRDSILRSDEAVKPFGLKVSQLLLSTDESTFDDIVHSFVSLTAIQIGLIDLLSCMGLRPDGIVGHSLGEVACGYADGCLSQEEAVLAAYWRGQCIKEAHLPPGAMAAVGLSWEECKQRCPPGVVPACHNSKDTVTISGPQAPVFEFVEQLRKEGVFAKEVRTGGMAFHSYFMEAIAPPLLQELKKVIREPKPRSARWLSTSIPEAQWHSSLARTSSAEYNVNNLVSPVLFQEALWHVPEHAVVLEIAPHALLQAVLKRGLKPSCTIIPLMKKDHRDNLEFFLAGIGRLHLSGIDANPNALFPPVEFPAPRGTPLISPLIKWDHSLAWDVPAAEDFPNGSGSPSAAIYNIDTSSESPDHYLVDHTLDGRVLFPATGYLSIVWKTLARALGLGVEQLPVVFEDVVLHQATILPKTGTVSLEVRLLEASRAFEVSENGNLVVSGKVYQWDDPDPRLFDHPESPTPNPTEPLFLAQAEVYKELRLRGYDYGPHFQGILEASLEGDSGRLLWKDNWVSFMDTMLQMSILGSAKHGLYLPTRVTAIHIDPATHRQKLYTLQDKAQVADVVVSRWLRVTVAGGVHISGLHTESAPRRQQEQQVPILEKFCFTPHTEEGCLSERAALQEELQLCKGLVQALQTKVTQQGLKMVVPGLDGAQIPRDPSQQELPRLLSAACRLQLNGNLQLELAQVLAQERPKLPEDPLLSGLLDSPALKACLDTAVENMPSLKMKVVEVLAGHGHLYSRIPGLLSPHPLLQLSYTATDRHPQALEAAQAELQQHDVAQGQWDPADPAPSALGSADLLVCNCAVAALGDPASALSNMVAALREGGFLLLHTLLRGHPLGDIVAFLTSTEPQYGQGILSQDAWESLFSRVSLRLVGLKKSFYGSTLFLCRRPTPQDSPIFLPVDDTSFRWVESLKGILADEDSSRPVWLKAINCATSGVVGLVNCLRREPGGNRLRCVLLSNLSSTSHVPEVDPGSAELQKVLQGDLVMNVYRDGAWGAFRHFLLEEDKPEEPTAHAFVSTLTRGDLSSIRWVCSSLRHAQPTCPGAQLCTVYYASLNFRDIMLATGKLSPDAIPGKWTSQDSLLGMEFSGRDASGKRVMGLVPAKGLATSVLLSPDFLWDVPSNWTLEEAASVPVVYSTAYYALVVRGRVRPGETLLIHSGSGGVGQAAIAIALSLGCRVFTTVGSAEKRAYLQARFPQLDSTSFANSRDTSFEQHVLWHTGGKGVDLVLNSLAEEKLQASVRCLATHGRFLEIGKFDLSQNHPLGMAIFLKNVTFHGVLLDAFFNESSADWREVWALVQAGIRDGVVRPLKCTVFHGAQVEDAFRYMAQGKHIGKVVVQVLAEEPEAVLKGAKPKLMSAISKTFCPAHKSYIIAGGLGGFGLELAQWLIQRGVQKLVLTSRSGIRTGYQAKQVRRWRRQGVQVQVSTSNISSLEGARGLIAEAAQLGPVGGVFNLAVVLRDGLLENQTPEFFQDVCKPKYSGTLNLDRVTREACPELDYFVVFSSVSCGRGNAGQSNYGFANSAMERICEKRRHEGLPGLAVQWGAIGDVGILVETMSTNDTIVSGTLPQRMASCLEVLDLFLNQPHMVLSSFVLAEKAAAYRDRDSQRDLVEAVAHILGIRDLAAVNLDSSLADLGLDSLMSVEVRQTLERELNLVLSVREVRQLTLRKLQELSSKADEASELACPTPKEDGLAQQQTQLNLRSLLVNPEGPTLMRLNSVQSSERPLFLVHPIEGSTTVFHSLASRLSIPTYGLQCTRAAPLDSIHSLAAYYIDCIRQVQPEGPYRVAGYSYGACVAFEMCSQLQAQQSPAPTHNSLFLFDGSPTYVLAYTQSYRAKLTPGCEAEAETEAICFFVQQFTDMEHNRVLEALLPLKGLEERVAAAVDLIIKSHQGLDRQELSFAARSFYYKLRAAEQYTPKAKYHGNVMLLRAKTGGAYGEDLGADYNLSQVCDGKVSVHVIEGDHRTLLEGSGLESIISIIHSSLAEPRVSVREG

CCCCCCCCC1(C)SC(=O)C=C1OCC(=O)NNc1ccc(Cl)cc1 (stereo not shown)
FAS (IC50): Neg and 237 ± 43 ug/ml

From patent publication US20100168176A1, “NOVEL COMPOUNDS, PHARMACEUTICAL COMPOSITIONS CONTAINING SAME, AND METHODS OF USE FOR SAME” (FASGEN LLC, priority 2006, published 2010)
